Reference: PMC12120709

Assays:
[1] = biological target: integrin α5 (mouse (endogenous in C2C12)); experiment: proximity ligation; Duolink PLA in C2C12 myoblasts seeded on rigid PAAm hydrogels functionalized with fibronectin, untreated or stimulated with soluble boron (0.59 and 1.47 mM); a dot where two proteins are closer than 40 nm
[2] = biological target: integrin αv (mouse (endogenous in C2C12)); experiment: as above
[3] = biological target: integrin α5 (mouse (endogenous in C2C12)); experiment: condition: only cells on hydrogels coated with laminin-111 in place of fibronectin; proximity ligation; Duolink PLA in C2C12 myoblasts seeded on PAAm hydrogels of different stiffnesses functionalized with laminin-111, untreated or stimulated with soluble boron (0.59 and 1.47 mM)
[4] = biological target: integrin αv (mouse (endogenous in C2C12)); experiment: as above

B1: NaBC1 boron transporter (protein, UniProt A2AJN7 1-862)
chain: MSQNEHCQDSGEYFSAGTQGYFKNNMEDNLEVREDSLGDEVFDTVNSSIVSGESIRFFVNVNLEVQPSKSDLEAATGGCVLLHTSRKYLKLKNFEEEVRAHRDLDGFLAQASIILNETATSLDDVLRTMLNRFALDPNHAEPDCDLDLLMAKLFTDAGAPMESKVHLLSDTIQGVTATVRGVQYEQSWLCIICTMKTLQKRHVCISRLVRPQNWGENSCEVRFVILVLAPPKMKSTKTAMEVARTFATMFSDITFRQKLLKTRTEEEFKEALVHQRQLLTMMMPRAAGHSMSSLHTHRHPQPPKCKDFFPFGKGIWMDIMRRFPVYPMDFTDGIIGKSKSVGKYVTTTLFLYFACLLPTIAFGSLNDENTNGAIDVQKTIAGQSIGGLLYALFSGQPLVILLTTAPLAIYTQVIRVICDDYNLDFNAFYAWTGLWNSFFLALYAFLNLSLLMNLFKRSTEEIIALFISITFVLDAVKGMVKIFGKYYYGHHYHTKRTSSLVSLLGIGRSPNSSLHTALNASLLASPVEMATTSSPGSTHSGQATAVLSLLIMLGTLWLGYTLYQFKKSPYLHPCVRETLSDCALPIAVLSFSLIGSYGFQEIEMSKFRYNPSESLFEVAQIHSLSFKAIGSAMGLGFLLSLLFFIEQNLVAALVNAPENRLVKGTAYHWDLLLLAIINTGLSLFGLPWIHAAYPHSPLHVRALALVEERVENGHIYETIVDVKETRLTALGASVLVGLSLLLLPFPLQWIPKPVLYGLFLYIALTSLDGNQLFSRVALLLKEQTSYPPTHYIRRVPQRKIHYFTGLQILQLLLLCAFGMSSLPYMKMVFPLIMIAMIPIRYNLLPRIIEAKYLDVMDAEHRP
With B1 the binding [1] was “binds”, the binding [2] was “binds” and the binding [3] was “no binding”. For the same binder, the binding [4] was “no binding”.

No constants are given. Whether binding was seen depends on the method and setting. In cells and extracts the contact can be indirect. For some of these results: A result given as binding can be weak or reduced; the word gives no strength.
